# Reference: PubChem BioAssay AID540256 (National Center for Advancing Translational Sciences (NCATS), 2011)
# Values joined by “and” are separate entries in the source; they are usually repeats but may differ in a detail not shown here. Equal values may be shown once. Out of some 300,000 compounds screened, about 3,700 (1.2%) were called active. The shares of active, inactive and inconclusive entries below differ from those in the screen. Calls follow the shape of the full dose curve; tested in HEK293 cells. Where the call is inconclusive, the potency comes from a doubtful curve fit.
# Test: qHTS for Inhibitors of binding or entry into cells for Lassa Virus; also: nearly all actives have a fitted effect of over 50% in size
# Details: Lassa virus pseudotype entry inhibition, cell reporter; series mostly up to 37.9 µM
# Potency is read from the fitted curve at half-maximal effect.
row,SMILES,Potency
1,Cn1c2ccccc2c(=O)c2c(=O)n(C3CCCCC3)c(-c3cccs3)nc21,inactive
2,Cc1nn(-c2ccccc2)c(OC(=O)C(C)(C)C)c1Sc1ccccc1,"inconclusive: 3.16 µM [inhibitor, single point]"
3,CC(C)c1ccc(OCc2cccc(C(=O)N/N=C/c3cccnc3)c2)cc1,"inconclusive: 4.61 µM [inhibitor, full curve, poor fit]"
4,COc1ccc(CC(=O)N(Cc2ccccc2)c2ccc(C)cc2)cc1S(=O)(=O)N1CCOCC1,"inconclusive: 15.8 µM [inhibitor, single point]"
5,CCCc1cc(C(=O)Nc2c(C)nn(Cc3ccc(Cl)c(Cl)c3)c2C)no1,"inconclusive: 35.5 µM [inhibitor, single point]"
6,CCN(CC)S(=O)(=O)c1ccc2c(c1)N(CC(=O)N(CCc1ccncc1)C(C)C)C(=O)CO2,inactive
7,O=C(NC12CC3CC(CC(C3)C1)C2)N1CCN(c2nc(-c3ccccc3)cs2)CC1,"inconclusive: 25.1 µM [inhibitor, single point]"
8,COC(CN(C(=O)CCl)C(C(=O)NC1CCCC(C)C1C)c1ccc(C)cc1)OC (centres undefined),"inconclusive: 35.5 µM [activator, single point]"
9,Clc1ccc(N2CCN(Cc3ccc(Br)o3)CC2)cc1,"inconclusive: 4.47 µM [activator, partial curve, poor fit]"
10,COc1ccc(NC(=O)CN(C)CC(=O)Nc2ccc(N3CCOCC3)cc2)c([N+](=O)[O-])c1,"inconclusive: 20 µM [activator, partial curve, poor fit]"
11,O=C(Nc1ccc(S(=O)(=O)N2CCOCC2)cc1)c1c(F)cccc1F,"inconclusive: 6.31 µM [inhibitor, partial curve, poor fit]"
12,Cc1ccc(NC(=S)N/N=C2\CCCCC2C)cc1 (centres undefined),inactive
13,CCN(CC)C(=O)COc1c(-c2ccco2)oc2ccccc2c1=O,"inconclusive: 35.5 µM [inhibitor, single point]"
14,CSCC(=O)N1CCCC(CNC(=O)c2ccccc2Cl)C1 (centres undefined),inactive
15,O=[N+]([O-])c1cc(-c2nc(-c3ccccc3)no2)ccc1NC1CCCC1,inactive
16,COc1ccc(CN2C(=O)N(c3ccc(C)cc3)C(=O)C2CC(=O)Nc2ccccc2)cc1OC (centres undefined),inactive
17,O=C1C=C(c2ccccc2)CC(c2cccs2)C1n1cnc([N+](=O)[O-])c1 (centres undefined),inactive
18,O=C(Nc1ccccc1C(=O)NCCc1ccccc1)c1cnccn1,inactive
19,CCOc1ccc(-c2cc(C(=O)NCCc3ccc(Cl)cc3)c3ccccc3n2)cc1,"inconclusive: 15.8 µM [activator, single point]"
20,COc1cccc(NC(=O)NCCc2ccc(Cl)cc2)c1,inactive
21,CCCN(CCC)c1nc2ccccc2nc1C(C#N)C(=O)OCCOC (centres undefined),"inconclusive: 11.2 µM [inhibitor, partial curve]"
22,O=C1CC(N(CCc2ccccc2)C(=S)Nc2cc(Cl)ccc2Cl)C(=O)N1c1c(Cl)cccc1Cl (centres undefined),"inconclusive: 12.6 µM [inhibitor, partial curve, poor fit]"
23,CCCCn1c(O)c(/C=N/N2CCCCC2c2cccnc2)c(=O)[nH]c1=S (centres undefined),inactive

row,SMILES,Potency
1,Cc1ccnc(SCC(=O)c2cccs2)n1,"inconclusive: 8.91 µM [inhibitor, partial curve, poor fit]"
2,Cc1cccc(OCCN2C(=O)C(=O)c3cc(C)ccc32)c1,"inconclusive: 2.82 µM [inhibitor, full curve]"
3,C/C(CC(=O)Nc1ccc([N+](=O)[O-])cc1)=N/NC(=O)C1CC12CCC2 (centres undefined),inactive
4,COc1ccc(N2CCN(C(=O)c3ccc4c(Cl)c5c(nc4c3)CCCC5)CC2)cc1,"inconclusive: 5.62 µM [inhibitor, single point]"
5,CCCOP(=O)(c1ccc(N(C)C)cc1)C(O)c1ccc(N(C)C)cc1 (centres undefined),"inconclusive: 10 µM [inhibitor, partial curve, poor fit]"
6,O=C(Cn1cnc2ccccc2c1=O)N1CCc2ccccc2C1,inactive
7,COCCn1c(=O)[nH]c2cc(C(=O)Nc3cccc(C(C)=O)c3)ccc2c1=O,"inconclusive: 2 µM [activator, full curve, poor fit] and inconclusive: 1.26 µM [activator, single point]"
8,Nc1nc(Nc2ccccc2)nc(N2CCOCC2)c1[N+](=O)[O-],"inconclusive: 10.3 µM [activator, partial curve, poor fit]"
9,O=c1c(-c2ccco2)[n+]([O-])c2ccccc2n1OCc1ccccc1[N+](=O)[O-],inactive
10,CC(=O)N/C(=C\c1ccccc1)C(=O)OCc1cc(C)ccc1C,inactive
11,Cc1ccc(CN2CCCn3nc(C(=O)NCC(C)c4ccccc4)cc3C2=O)cc1 (centres undefined),"inconclusive: 10 µM [inhibitor, single point]"
12,COc1ccc(Cl)cc1NC(=O)CN1C(=O)CCS(=O)(=O)c2ccccc21,inactive
13,N#Cc1ccc(OCC(O)CN2CCN(c3ncc(C(F)(F)F)cc3Cl)CC2)cc1 (centres undefined),"inconclusive: 12.6 µM [inhibitor, partial curve, poor fit]"
14,CCc1cc2c(=O)n(-c3ccccc3)c(=S)[nH]c2s1,"inconclusive: 29.1 µM [activator, single point]"
15,COc1ccc(C2(C(=O)Nc3ccc(C)c(C)c3)CCOCC2)cc1,"inconclusive: 5.62 µM [inhibitor, single point]"
16,CCCc1nc(SCC(=O)Nc2nc3c(s2)CCCC3)c2ccccc2n1,"inconclusive: 29.1 µM [inhibitor, single point]"
17,COc1ccc(-c2cn[nH]c2-c2ccc(OC)cc2O)cc1,"inconclusive: 10 µM [inhibitor, partial curve]"
18,CCCn1c2ccccc2c2cnn(CC(=O)NCCc3ccc(C)cc3)c(=O)c21,inactive
19,CCOc1ccc(NC(=O)CC2C(=O)N(c3ccc(OC)cc3)C(=S)N2Cc2ccccn2)cc1 (centres undefined),"inconclusive: 3.55 µM [inhibitor, full curve]"
20,COc1ccc(N(C(C)=O)C2C=CS(=O)(=O)C2)c(OC)c1 (centres undefined),inactive
21,COc1ccc(C(=O)NC2CCCCC2)cc1OC1CCN(C(C)C)CC1,inactive
22,O=C(COc1ccc(C(=O)c2ccccc2)cc1)NCc1ccc(F)cc1,"inconclusive: 7.94 µM [inhibitor, partial curve, poor fit]"
23,COc1ccc(-c2noc(CN(C(=O)c3cc(OC)c(OC)cc3OC)C(C)C)n2)cc1,inactive

# An excerpt from above in order of length of the SMILES, largest number first.
row,SMILES,Potency
4,COc1ccc(CC(=O)N(Cc2ccccc2)c2ccc(C)cc2)cc1S(=O)(=O)N1CCOCC1,"inconclusive: 15.8 µM [inhibitor, single point]"
13,N#Cc1ccc(OCC(O)CN2CCN(c3ncc(C(F)(F)F)cc3Cl)CC2)cc1 (centres undefined),"inconclusive: 12.6 µM [inhibitor, partial curve, poor fit]"
5,CCCc1cc(C(=O)Nc2c(C)nn(Cc3ccc(Cl)c(Cl)c3)c2C)no1,"inconclusive: 35.5 µM [inhibitor, single point]"
18,O=C(Nc1ccccc1C(=O)NCCc1ccccc1)c1cnccn1,inactive

# (more compounds)

row,SMILES,Potency
1,COCCOc1ccc(C(F)(F)F)cc1NC(=O)COC(=O)c1cc([N+](=O)[O-])ccc1N1CCOCC1,"inconclusive: 14.1 µM [inhibitor, partial curve, poor fit]"
2,COc1ccc(OC)c(NC(=O)C2CC(=O)N(CCc3ccc(F)cc3)C2)c1 (centres undefined),inactive
3,NC(=O)c1sc(-n2cnc3ccccc32)cc1OCc1ccccc1Br,active: 8.88 µM
4,CCOc1ccc2oc(C(=O)N3CCN(c4ccccn4)CC3)c(C)c2c1,inactive
5,CCOC(=O)c1cc(C(=O)Nc2cccc(C)c2)nn1C,"inconclusive: 6.51 µM [activator, single point]"
6,CC(=O)NCCOc1cccc2ccccc12,inactive
7,COc1nc(Oc2ccc(=O)[nH]n2)nc(N2CCOCC2)n1,"inconclusive: 6.51 µM [activator, single point]"
8,COc1cccc(NC(=S)NN=C2CCCCCC2)c1,inactive
9,COc1ccc(C)cc1S(=O)(=O)N(CC(=O)N1CCOCC1)c1cc(C)cc(C)c1,"inconclusive: 35.5 µM [inhibitor, single point]"
10,COc1ccc(CC(=O)NCc2nnc(SCC(=O)c3ccc(OC)cc3)n2C)cc1,inactive
11,CC(C)(C)NC(=O)N1CCN(c2nc(-c3ccccc3)ns2)CC1,"inconclusive: 1.78 µM [activator, partial curve]"
12,CCCCCSc1cc(O)c(C(CNC)C(C)C)cc1OC (centres undefined),"inconclusive: 31.6 µM [inhibitor, partial curve, poor fit]"
13,N#Cc1cc(-c2ccccc2)nnc1Sc1ccccc1,"inconclusive: 11.2 µM [activator, single point]"
14,CCOC(=O)C1(CCc2ccccc2)CCN(Cc2cnc(N(C)C)s2)CC1,"inconclusive: 35.5 µM [inhibitor, single point]"
15,Cc1ccc(/C=N/NC(=O)NC2CCCCC2)o1,"inconclusive: 1 µM [inhibitor, full curve, poor fit]"
16,COc1ccc(NC(=O)CC2C(=O)N(c3cccc(OC)c3)C(=O)N2Cc2ccc3c(c2)OCO3)cc1 (centres undefined),"inconclusive: 22.4 µM [inhibitor, single point]"
17,CCN(CC)CCN(C)C1CCC(c2ccccc2)CC1 (centres undefined),"inconclusive: 35.5 µM [inhibitor, single point]"
18,COc1cccc(-c2ccc(SCC(=O)c3ccccc3)nn2)c1,inactive
19,COc1ccc(/C=N/Nc2nc(N3CCCCC3)nc(N3CCCCC3)n2)cc1[N+](=O)[O-],"inconclusive: 35.5 µM [inhibitor, partial curve, poor fit]"
20,CN1c2ccccc2C(C)(C)C12CC(c1cccc(S(=O)(=O)N3CCCC3)c1)=NO2 (centres undefined),active: 0.517 µM
21,CCOc1ccccc1N(CC(=O)Nc1ccccc1C(=O)O)S(C)(=O)=O,inactive
22,CCCn1c(CCC(=O)Nc2ccccc2OC)nc2cccnc21,"inconclusive: 5.62 µM [inhibitor, single point]"
23,CC(=O)Nc1ccc(S(=O)(=O)N(C2=NCC(C)S2)c2ccccc2)cc1 (centres undefined),"inconclusive: 15.8 µM [inhibitor, single point]"
